From patent US20080058272A1, “Nonamer Peptides for Cancer Treatment” (priority 2006, published 2008)
No constants are given. Whether binding was seen depends on the method and setting. A result given as binding can be weak or reduced; the word gives no strength.

Biological target: HLA-A2 (human)
Assay: recombinant HLA-A2/peptide complexes (multimers)

binding, binds:
GLFKCGIAV [FAPα^639-647]

Biological target: HLA-A2 (human)
Assay: competitive binding assay on acid-stripped JY cells, flow cytometry

binding, binds:
GLFKCGIAV [FAPα^639-647]
GLSPDRQFV [FAPα^104-112]
YLESDYSKL [FAPα^113-121]
ALVCYGPGI [FAPα^463-471]
KILEENKEL [FAPα^486-494]
YLASKEGMV [FAPα^560-568]
LLYAVYRKL [FAPα^584-592]
